No constants are given. Whether binding was seen depends on the method and setting. Binding seen in cells or lysates may run through a third protein. A yes stands for co-enrichment or nearness to the bait. Other partners may have been found. A no says only that the protein was not detected with the bait. Tags and fused reporters may be left off the sequences shown.
T1: DivIVA-GFP-His-tag fusion (strain 3308) (B. subtilis) (UniProt P71021)
T1 sequence: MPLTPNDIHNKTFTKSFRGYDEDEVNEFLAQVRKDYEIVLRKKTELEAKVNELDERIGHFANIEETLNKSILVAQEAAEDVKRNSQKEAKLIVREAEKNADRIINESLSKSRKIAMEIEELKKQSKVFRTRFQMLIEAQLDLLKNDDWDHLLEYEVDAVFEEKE


biological target: T1, DivIVA-GFP-His-tag fusion (strain 3308) (B. subtilis); assay: cross-linking + affinity purification with mass spectrometry; in vivo cross-linking of an exponentially growing culture of strain 3308 with 1% formaldehyde for 20 min, quenched with 75 mM glycine; cells broken and treated with Urea/SDS; DivIVA-GFP-His purified on a Ni-NTA column; cross-links reversed by heating; bands of an SDS-PAA gel identified by mass spectrometry

Molecule | binding
secretion ATPase SecA (from UniProt P28366 1-841) (enzyme) | binds
Tsf (protein, UniProt P80700 1-293) MAITAQQVKELREKTGAGMMDCKKALTETDGDMDKAIDLLREKGIAKAAKKADRIAAEGSTLIKTDGNKGVILEVNSETDFVAKNEGFKELLNTLADHLLANTPADVEEAMGQKMENGSTVEEYITSAVAKIGEKITLRRFTVLTKDDSSAFGAYLHMGGRIGVLTVLNGTTDEETAKDIAMHVAAVNPRYISRDQVSEEETNHERQILTQQALQEGKPENIVAKMVEGRLNKFFEEICLLDQAFVKNPDEKVKQVIAAKNATVQTFVRYEVGEGIEKRQENFAEEVMNQVKK | no binding
YdjL (enzyme, UniProt O34788 1-346) MKAARWHNQKDIRIEHIEEPKTEPGKVKIKVKWCGICGSDLHEYLGGPIFIPVDKPHPLTNETAPVTMGHEFSGEVVEVGEGVENYKVGDRVVVEPIFATHGHQGAYNLDEQMGFLGLAGGGGGFSEYVSVDEELLFKLPDELSYEQGALVEPSAVALYAVRSSKLKAGDKAAVFGCGPIGLLVIEALKAAGATDIYAVELSPERQQKAEELGAIIVDPSKTDDVVAEIAERTGGGVDVAFEVTGVPVVLRQAIQSTTIAGETVIVSIWEKGAEIHPNDIVIKERTVKGIIGYRDIFPAVLSLMKEGYFSADKLVTKKIVLDDLIEEGFGALIKEKSQVKILVRPN | no binding
prephenate dehydratase PheA (enzyme, UniProt P21203 1-285) MKVGYLGPAATFTHLAVSSCFQNGAEHVAYRTIPECIDAAVAGEVDFAFVPLENALEGSVNLTIDYLIHEQPLPIVGEMTLPIHQHLLVHPSRENAWKELDKIYSHSHAIAQCHKFLHRHFPSVPYEYANSTGAAAKFVSDHPELNIGVIANDMAASTYELKIVKRDIQDYRDNHTRFVILSPDENISFEVNSKLSSRPKTTLMVMLPQDDQSGALHRVLSAFSWRNLNLSKIESRPTKTGLGHYFFIIDIEKAFDDVLIPGAMQELEALGCKVRLLGAYQSYQL | binds

Other lines, results leading:

binding | Molecule
no binding | DnaK (from UniProt P17820 1-611)
no binding | PdhA (from UniProt P21881 1-371) (enzyme)
no binding | FusA (from UniProt P80868 1-692)
no binding | Tkt (enzyme, UniProt P45694 1-667) MDTIEKKSVATIRTLSIDAIEKANSGHPGMPMGAAPMAYTLWTKFMNVSPANPGWFNRDRFVLSAGHGSALLYSMLHLSGFDLSIEDLKGFRQWGSKTPGHPEFGHTAGVDATTGPLGQGIAMAVGMAIAERHLAETYNRDSFNVVDHYTYSICGDGDLMEGISSEAASLAGHLQLGRLIVLYDSNDISLDGDLDRSFSENVKQRFEAMNWEVLYVEDGNNIEELTAAIEKARQNEKKPTLIEVKTTIGFGSPNRAGTSGVHGAPLGKEESKLTKEAYAWTYEEDFYVPSEVYEHFAVAVKESGEKKEQEWNAQFAKYKEVYPELAEQLELAIKGELPKDWDQEVPVYEKGSSLASRASSGEVLNGLAKKIPFFVGGSADLAGSNKTTIKNAGDFTAVDYSGKNFWFGVREFAMGAALNGMALHGGLRVFGGTFFVFSDYLRPAIRLAALMGLPVTYVFTHDSIAVGEDGPTHEPVEQLASLRAMPNLSLIRPADGNETAAAWKLAVQSTDHPTALVLTRQNLPTIDQTSEEALAGVEKGAYVVSKSKNETPDALLIASGSEVGLAIEAQAELAKENIDVSVVSMPSMDRFEKQSDEYKNEVLPADVKKRLAIEMGSSFGWGKYTGLEGDVLGIDRFGASAPGETIINEYGFSVPNVVNRVKALINK
binds | unknown protein YxkC (protein, UniProt P94356 31-180) TSKTSSSSKAETEKTYNIGDTVKTEKTEVTVTKVEDRDTVGTQYVEKKASEGGTIVAVQYTIKNVSKKPISSFSIPTVKLVDADGTSYDSDIDASVNYATETKVDNSKILSDLNPNIKVTGVKAFEVDKEAYAKGTWKLKFSNDVIVKIK
